Results from paper PMC7198525.
These are yes or no findings as the source states them, for the method shown. In cells and extracts the contact can be indirect. Some binding calls cover weakened binding; strength is not graded here. For part of these data: Sequences can lack the tags named with a protein.

Protein sequences, listed by entry. Tags and fused reporters are not part of them.
UniProt Q13123: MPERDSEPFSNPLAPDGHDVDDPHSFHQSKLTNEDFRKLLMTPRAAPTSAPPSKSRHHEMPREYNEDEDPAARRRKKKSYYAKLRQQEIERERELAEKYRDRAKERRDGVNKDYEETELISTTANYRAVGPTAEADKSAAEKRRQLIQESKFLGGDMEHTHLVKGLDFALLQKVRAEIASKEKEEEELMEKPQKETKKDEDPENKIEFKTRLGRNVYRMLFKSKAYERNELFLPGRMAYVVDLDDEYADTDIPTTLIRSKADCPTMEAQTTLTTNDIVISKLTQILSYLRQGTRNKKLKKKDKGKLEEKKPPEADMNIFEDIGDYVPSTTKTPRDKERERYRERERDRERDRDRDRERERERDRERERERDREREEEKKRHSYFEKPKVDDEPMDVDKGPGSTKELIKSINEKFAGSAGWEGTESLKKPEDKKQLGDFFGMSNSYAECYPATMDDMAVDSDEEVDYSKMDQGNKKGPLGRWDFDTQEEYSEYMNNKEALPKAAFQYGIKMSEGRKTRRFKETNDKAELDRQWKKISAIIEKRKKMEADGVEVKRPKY

Tests used:
[1] = biological target: T1, Flag-USP47 (human) (UniProt Q96K76); assay: co-IP; HEK-293T cells transfected with HA-IK or/and Flag-USP47; immunoprecipitated with an anti-HA or anti-Flag antibody; immunoblot for HA and FLAG
T1 sequence: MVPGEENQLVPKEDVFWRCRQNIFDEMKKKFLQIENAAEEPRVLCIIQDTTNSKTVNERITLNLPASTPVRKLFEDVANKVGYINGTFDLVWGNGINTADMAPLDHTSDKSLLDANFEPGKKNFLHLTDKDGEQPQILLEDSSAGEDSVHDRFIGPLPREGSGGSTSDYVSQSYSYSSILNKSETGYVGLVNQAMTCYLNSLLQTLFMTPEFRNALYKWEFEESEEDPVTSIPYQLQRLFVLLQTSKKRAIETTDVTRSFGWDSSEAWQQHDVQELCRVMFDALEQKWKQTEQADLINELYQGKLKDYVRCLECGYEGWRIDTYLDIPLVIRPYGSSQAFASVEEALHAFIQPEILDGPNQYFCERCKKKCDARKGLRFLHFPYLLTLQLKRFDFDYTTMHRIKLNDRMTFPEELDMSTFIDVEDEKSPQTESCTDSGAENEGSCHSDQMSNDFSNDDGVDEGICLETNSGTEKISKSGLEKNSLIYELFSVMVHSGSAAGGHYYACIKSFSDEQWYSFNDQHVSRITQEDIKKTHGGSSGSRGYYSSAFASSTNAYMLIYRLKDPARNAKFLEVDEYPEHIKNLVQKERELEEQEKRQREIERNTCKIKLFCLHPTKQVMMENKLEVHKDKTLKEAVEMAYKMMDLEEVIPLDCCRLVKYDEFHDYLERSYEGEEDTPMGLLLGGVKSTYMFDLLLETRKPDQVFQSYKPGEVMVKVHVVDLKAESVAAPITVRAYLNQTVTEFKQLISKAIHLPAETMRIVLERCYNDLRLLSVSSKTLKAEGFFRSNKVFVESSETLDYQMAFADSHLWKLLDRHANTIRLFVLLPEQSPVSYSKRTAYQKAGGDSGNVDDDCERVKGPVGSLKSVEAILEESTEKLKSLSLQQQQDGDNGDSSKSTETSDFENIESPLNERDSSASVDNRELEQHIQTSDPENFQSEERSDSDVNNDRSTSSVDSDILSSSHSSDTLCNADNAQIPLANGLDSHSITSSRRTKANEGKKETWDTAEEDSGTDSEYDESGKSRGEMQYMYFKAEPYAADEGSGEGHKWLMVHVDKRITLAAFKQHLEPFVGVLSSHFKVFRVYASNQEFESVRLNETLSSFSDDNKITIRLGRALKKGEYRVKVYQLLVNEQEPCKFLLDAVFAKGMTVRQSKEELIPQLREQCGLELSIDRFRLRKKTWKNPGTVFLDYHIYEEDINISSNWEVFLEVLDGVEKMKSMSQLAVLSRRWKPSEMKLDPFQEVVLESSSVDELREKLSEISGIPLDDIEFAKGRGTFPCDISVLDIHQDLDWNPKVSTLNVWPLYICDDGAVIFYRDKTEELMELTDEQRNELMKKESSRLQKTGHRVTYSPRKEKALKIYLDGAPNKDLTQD

[2] = biological target: T2, USP47 (endogenous) (human (endogenous in HeLa)) (UniProt Q96K76); assay: co-IP; endogenous proteins; lysis buffer 50 mM Tris-HCl pH 8.0, 150 mM NaCl, 1 mM EDTA, 1% NP-40; lysate with 3 ug of antibody overnight, protein G agarose beads 2 h at 4 C, four washes; immunoblot
T2 sequence: T1 sequence

[3] = biological target: HA-IK (not stated (human or mouse cDNA cloned)) (UniProt Q13123); assay: co-IP; HEK-293T cells transfected with HA-IK or/and Flag-USP47; immunoprecipitated with an anti-HA or anti-Flag antibody; immunoblot for HA and FLAG

For HA-IK (from UniProt Q13123 1-557), the binding [1] was “binds”.

With “IK (endogenous) (from UniProt Q13123 1-557)” the binding [2] was “binds”.

B1: Flag-USP47 (enzyme, UniProt Q96K76 1-1375)
chain: T1 sequence
With B1 the binding [3] was “binds”.
